62 compounds from PubChem BioAssay AID2685 (National Center for Advancing Translational Sciences (NCATS), 2010) can be followed below.

The list shows a part of the results. Shown are side measurements of this screen, not its main read-out; they come without a call. Most of these compounds were active or inconclusive in the main read-out, so they are no random draw. The note in brackets gives the kind of curve behind each potency; many fits are weak.

The experiment is described as follows: qHTS Assay for Lipid Storage Modulators in Drosophila S3 Cells.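 On cell number change: cells counted by Cell Tracker Red CMTPX staining in the red channel.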 Conditions: BODIPY lipid droplet fluorescence, 18-24 h; for cell number change: measured here: cell count max response, cells fed with added oleic acid. A digest of the protocol: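 Laser-scanning cytometry quantifies lipid droplet accumulation (500–530 nm total intensity; droplet/cell object ratio) in oleic acid-fed (400 uM added) Drosophila S3 cells treated with a concentration series. 20 uM Triacsin C defined 100% inhibition.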

Where [1] appears, read: measured here: lipid fluorescence (Fed channel) AC50, cells fed with added oleic acid.
Setting [2] is: measured here: cell number channel AC50, cells fed with added oleic acid.

As to `COCCN(CC(=O)Nc1ccccc1C(F)(F)F)C(=O)/C=C/c1cc(Cl)c2c(c1)OCO2`, the cell number change is -1.34%.
The same measure, in the same setting: for `O=C(C[n+]1cc(-c2ccc(Cl)c(Cl)c2)n2c1CCC2)c1cccs1` the value was 10.2%.
For the compound `Cc1ccc(C(=O)NCC(=O)OCC(=O)Nc2ccccc2C#N)s1`, the cell number change is -13.8%. Further, under setting [1], the AC50 is 0.366 µM [falling, full curve, poor fit].
Consider `CCOC(=O)CCCCC(=O)c1[nH]c(=O)[nH]c1CN1CCOCC1`, for which the cell number change amounted to 3.64%.
On to `COc1ccc(-c2cc(=O)oc3c(C)c(OC(C)C(=O)NCc4ccccn4)ccc23)cc1` (stereo not given), for which the cell number change was determined as 37.1%. Moreover, the half-maximal activity concentration (AC50) under setting [2] is 29.1 µM [rising, single point]. Moreover, the AC50 under setting [1] is 29.1 µM [falling, single point].
For `N/C(=N\OC(=O)c1cccc(Cl)c1)c1ccccn1`, the cell number change stood at 2.36%.
As to `COc1ccc(CC(=O)n2[nH]c(=O)ccc2=O)cc1OC`, the cell number change is -60.9%. The AC50 under setting [2] is 23.1 µM [falling, partial curve].
With `Cc1cc2ccccc2n2c(SCC(=O)Nc3ccc(S(=O)(=O)N4CCCCC4)cc3)nnc12`, the cell number change was -16.4%.
As for `CCC(=NC)C1=C(O)CC(c2ccccc2)CC1=O` (stereo not given), the cell number change was found to be 0.338%.
The same measure, in the same setting: then `O=S(=O)(c1ccccc1)N1CCC(N2CCN(c3ccccc3)CC2)CC1`, with 9.68%.
On to `CC(=O)c1ccc(N2CCN(S(=O)(=O)c3cc4c(cc3C)NC(=O)CO4)CC2)cc1`, for which, under setting [1], the concentration at half-maximal activity (AC50) was 29.1 µM [falling, single point].
In the case of `O=C(/C=C(\O)c1ccccc1)C(=O)NNC(=O)c1ccccc1[N+](=O)[O-]`, the cell number change was -44.7%. Under setting [2], the AC50 was 10.3 µM [falling, partial curve].
Turning to `O=C(CSc1nc2c(cnn2-c2cccc(Cl)c2)c(=O)[nH]1)NCCC1=CCCCC1`, the cell number change is -32.6%. Further, the AC50 under setting [2] is 0.651 µM [falling, full curve, poor fit]. For the same compound, the AC50 under setting [1] is 0.82 µM [falling, full curve, poor fit].
Take `CC(C)NC(=O)C1COc2ccccc2O1` (stereo not given): the cell number change came to 15.2%. Moreover, under setting [1], the AC50 is 32.6 µM [rising, single point].
With `CCC(CC)C(=O)N1CCN(Cc2ccc3c(c2)OCO3)CC1`, the cell number change was found to be 39.2%. Moreover, the AC50 under setting [2] is 7.31 µM [rising, partial curve]. In addition, under setting [1], the concentration at half-maximal activity (AC50) is 16.4 µM [rising, partial curve].
`COc1ccccc1CNC(=O)c1ccc2nc3[nH]c4ccccc4c3nc2c1`: the cell number change was -50.7%. In addition, the AC50 under setting [2] was 29.1 µM [falling, single point]. Besides, under setting [1], the AC50 was 18.4 µM [falling, single point].
`COc1ccccc1CNC(=O)c1cc2ccccc2o1`: the cell number change amounted to 18.5%. The AC50 under setting [1] was 3.26 µM [rising, full curve].
For `O=C(CN1CCN(Cc2cccc(F)c2)CC1)Nc1ccccc1F`, the AC50 under setting [1] was 6.51 µM [rising, partial curve, poor fit].
Consider `Cc1ccccc1-c1nnn(CC(=O)N2CCN(S(=O)(=O)c3ccc(Cl)cc3)CC2)n1`, for which the cell number change turned out to be 83.6%. Moreover, under setting [2], the AC50 is 6.51 µM [rising, partial curve]. In addition, the AC50 under setting [1] was 1.84 µM [rising, partial curve].
`C/C(=N\Nc1ccccn1)c1ccc(C#N)cc1`: the AC50 under setting [2] is 4.11 µM [rising, partial curve, poor fit].
As to `CCOC(=O)/C=C/c1ccc2oc3ccccc3c(=O)c2c1`, the cell number change was found to be 15.2%.
In the case of `Cc1ccc(S(=O)(=O)N2CCC(C(=O)N3CCC3)CC2)cc1`, the cell number change was 11.9%. Also, the AC50 under setting [1] is 29.1 µM [falling, single point].
For `Cc1ccn(C(=O)c2cc3cc(Cl)ccc3oc2=O)n1`, the cell number change came to 29.8%. In addition, under setting [1], the AC50 is 0.00517 µM [falling, full curve, poor fit].
On to `CC(C)(C)c1ccccc1NC(=O)Cn1cnc2cc([N+](=O)[O-])ccc2c1=O`, for which the cell number change was -9.78%. Moreover, the half-maximal activity concentration (AC50) under setting [1] was 0.146 µM [falling, full curve, poor fit].
As for `O=C(CCc1ccccc1)c1c(O)cc(O)cc1O`, the cell number change was -52.1%. The AC50 under setting [2] is 29.1 µM [falling, single point].
On to `COc1cccc(C(=O)NC(C)c2cccc3ccccc23)c1OC` (stereo not given), for which the cell number change came out at 27.8%. In addition, the AC50 under setting [1] is 29.1 µM [rising, single point].
On to `CNc1ccc(Oc2nc([N+](=O)[O-])nn2C)cc1`, for which the cell number change turned out to be 9.04%. Besides, the concentration at half-maximal activity (AC50) under setting [2] was 6.51 µM [rising, single point].
Consider `Cc1ccccc1Nc1nc(N)nc(COC(=O)c2ccccc2)n1`, for which the cell number change is 3.98%. Besides, the AC50 under setting [1] was 20.6 µM [rising, single point].
As to `O=C(c1cc(COc2ccc(F)cc2Cl)on1)N1CCC(c2ccncc2)CC1`, the cell number change is -44.2%. Under setting [2], the AC50 was 18.4 µM [falling, single point]. The AC50 under setting [1] is 29.1 µM [falling, single point].
Take `Cc1ccc(CNC(=O)c2ccc(N3CCC4(CC3)CC(c3ccccc3)=NO4)c(NC(=O)c3cccc(C)c3)c2)cc1`: the cell number change was determined as 12.8%. Further, under setting [1], the AC50 was 29.1 µM [rising, single point].
With `CC1=CCC(C(=O)O)(C(=O)N/N=C/c2cccs2)C(c2ccc(Cl)cc2)C1` (stereo not given), the cell number change was -22.5%.
On to `COc1cccc(NC(=O)c2nn(C34CC5CC(CC(C5)C3)C4)cc2[N+](=O)[O-])c1`, for which the cell number change was -16.7%. The AC50 under setting [1] was 3.26 µM [falling, single point].
Regarding `COc1cccc(-c2nc3ccc(C(=O)N4CCCC(O)C4)cc3o2)c1` (stereo not given), the cell number change amounted to 1.14%. Besides, the concentration at half-maximal activity (AC50) under setting [1] was 0.82 µM [falling, full curve, poor fit].
Consider `O=C(OCn1ncc(Cl)c(Cl)c1=O)c1ccccc1Cl`, for which the cell number change is -64.3%. For the same compound, the AC50 under setting [2] is 14.6 µM [falling, partial curve]. Also, the AC50 under setting [1] is 10.3 µM [falling, partial curve].
Turning to `CCOc1ccc2nc(C)cc(C(=O)O)c2c1`, the cell number change was -27.9%.
As for `COc1ccccc1Nc1nc(NCc2ccco2)c2ccccc2n1`, the cell number change is -1.64%. The AC50 under setting [2] is 0.00517 µM [rising, full curve, poor fit].
As for `COc1ccc(OC)c(-c2nn(-c3ccccc3)cc2C(=O)N2CCc3ccccc3C2)c1`, the cell number change was found to be 9.27%. For the same compound, the AC50 under setting [1] was 6.51 µM [falling, single point].
Regarding `CC(C)(CN1CCCC1)NS(=O)(=O)c1ccc(Cl)cc1`, the cell number change was 19%.
As to `Cc1cc(Cl)ccc1C(=O)C1CCCN(C(=O)c2cnn(C(C)C)c2)C1` (stereo not given), the cell number change was -24.8%.
As to `CCOC(=O)c1c(NC(=O)/C=C\C(=O)O)sc(C)c1-c1ccccc1`, the cell number change came to 92.7%. In addition, the AC50 under setting [2] was 13 µM [rising, partial curve]. For the same compound, the AC50 under setting [1] was 23.1 µM [rising, partial curve].
`O=C(NCCc1cccc(C(F)(F)F)c1)C1CCC(=O)N(C2CC2)C1` (stereo not given): the cell number change was determined as 14.7%. The AC50 under setting [1] was 1.84 µM [rising, partial curve, poor fit].
For the compound `CC1CC(C)CN(C2CCN(Cc3cccnc3)CC2)C1` (stereo not given), the cell number change amounted to 8.6%. The AC50 under setting [1] is 1.64 µM [falling, partial curve].
With `COc1ccc(OC)c(S(=O)(=O)N(C)CC(=O)N2CCN(c3ccccc3)CC2)c1`, the cell number change is -21.2%. Besides, the AC50 under setting [1] is 1.3 µM [falling, single point].
As to `N/C(Cc1ccc([N+](=O)[O-])cc1)=N\OC(=O)c1cccc(Br)c1`, the cell number change is -51.7%. For the same compound, the AC50 under setting [2] is 1.03 µM [falling, full curve].
In the case of `CCCn1c(SCC(=O)Nc2cccc(S(=O)(=O)NC3=NCCCCC3)c2)nc2ccccc2c1=O`, the cell number change is -34.7%. The AC50 under setting [2] was 1.64 µM [falling, full curve, poor fit].
For `COc1ccc2[nH]c(C)c(CN3CCC(C)CC3)c(=O)c2c1`, the cell number change is 38.2%. Moreover, the half-maximal activity concentration (AC50) under setting [2] is 32.6 µM [rising, single point].
Regarding `Cc1ccc(NC(=O)CN2C(=O)c3ccccc3C2=O)cc1`, the cell number change is -3.81%. In addition, under setting [1], the half-maximal activity concentration (AC50) is 29.1 µM [rising, single point].
Consider `Oc1ccccc1C1=NN(c2ccccc2)C(c2ccccc2)C1` (stereo not given), for which the AC50 under setting [1] is 8.2 µM [falling, single point].
Turning to `Cc1noc(C)c1CSCC(=O)N(C)CC(=O)Nc1ccc(Cl)c(Cl)c1`, the AC50 under setting [2] is 1.64 µM [rising, partial curve].
For the compound `C=CCNC(=O)c1ccc(OC)cc1`, the cell number change stood at 38.2%. The AC50 under setting [2] was 0.82 µM [falling, single point].
In the case of `O=C(O)C1CC(=O)N(CCc2ccccc2)C1` (stereo not given), the cell number change is -20.8%. Under setting [1], the concentration at half-maximal activity (AC50) was 0.116 µM [falling, full curve, poor fit].
For the compound `N#CCC(=O)Nc1ccc(C(=O)NCc2ccccn2)cc1`, the cell number change came out at 16.7%.
In the case of `O=C(OCc1nc2ccccc2s1)c1cccs1`, the cell number change is -24.9%. Also, the AC50 under setting [2] is 0.326 µM [falling, full curve, poor fit]. Besides, under setting [1], the AC50 was 0.58 µM [rising, single point].
With `Cc1ccc(C)c(CSC2=NCCN2C(=O)Cc2ccc([N+](=O)[O-])cc2)c1`, the cell number change amounted to 0.219%. Under setting [1], the AC50 was 3.26 µM [rising, partial curve].
In the case of `COc1ccc(OC)c(C2C(C(=O)c3cccs3)=C(O)C(=O)N2CCN(C)C)c1` (stereo not given), the cell number change amounted to 15.7%. Besides, the concentration at half-maximal activity (AC50) under setting [1] was 0.13 µM [falling, full curve, poor fit].
For the compound `CCOC(=O)CSc1nc2cc(C(=O)N3CCC(C(N)=O)CC3)ccc2c(=O)n1-c1ccccc1`, the AC50 under setting [2] was 0.58 µM [falling, partial curve, poor fit].
For `CNS(=O)(=O)c1ccc(NC(=O)Nc2ccc3c(c2)OCO3)cc1`, the cell number change was -32.7%. Moreover, under setting [2], the half-maximal activity concentration (AC50) is 29.1 µM [falling, single point]. The AC50 under setting [1] was 29.1 µM [rising, single point].
As for `CCOCCn1ccc2c(OCC(=O)Nc3cc(OC)ccc3OC)cccc2c1=O`, the cell number change was found to be 40.1%. For the same compound, the AC50 under setting [2] is 4.11 µM [rising, partial curve, poor fit].
Take `CN1CCN(C(=O)c2ccc(OCCOc3ccccc3)cc2)CC1`: the cell number change was 13.1%. The AC50 under setting [1] is 29.1 µM [rising, single point].
For `COc1cccc(CNC(=O)C2CCN(S(=O)(=O)c3c(C)nn(C)c3C)CC2)c1`, the cell number change turned out to be 24.5%. Also, the AC50 under setting [1] was 13 µM [rising, partial curve].
Turning to `Cc1ccc2[nH]c(C)c(CC(=O)NCc3ccccc3)c2c1`, the cell number change is -19.2%. The AC50 under setting [1] is 0.58 µM [rising, single point].
As for `CCOC(=O)c1ccc(NC(=S)N2CCN(S(C)(=O)=O)CC2)cc1`, the AC50 under setting [2] is 0.116 µM [rising, full curve, poor fit] and the AC50 under setting [1] is 0.164 µM [rising, full curve, poor fit].
